According to doi:10.1101/2023.10.06.561269 (bioRxiv, 2023):
These are yes or no findings as the source states them, for the method shown. A result given as binding can be weak or reduced; the word gives no strength. For part of these data: In cells and extracts the contact can be indirect.

How the values were obtained:
[1] = target: V. cholerae FtsE (V. cholerae); test: pull-down
[2] = target: V. cholerae FtsE (V. cholerae); test: cryo-EM structure
[3] = target: V. cholerae FtsE (V. cholerae); test: SEC

Measured: binding

V. cholerae FtsX (from UniProt A0A0H6I1B7)
binds: all assays above
